Patent US20190365762A1, “MEDICINAL COMPOSITION INHIBITING NEOVASCULARIZATION PROLIFERATION FACTOR” (KYOTO UNIVERSITY, priority 2014, published 2019)
Some of these results come from one statement about several compounds together.

Columns and labels:
[1] = tested on: model mice with choroidal neovascularization (CNV); experiment: CNV formation in laser-induced CNV model mice, intravitreal injection (Experiments 2 and 3); assay type: in vivo; conditions: 20 pmol intraocularly injected immediately after laser irradiation, 7 days, C57B/6J mice, FIG. 2
Experimental: [Experiment 2: Evaluation of Effect of Inhibiting CNV Formation by Compounds 1 to 3]
The synthesized compounds 1 to 3 and the above reference compound were administered to model mice with choroidal neovascularization (CNV) by intravitreal injection, and the CNV inhibition was evaluated. The details of the experiment are as follows. FIG. 2 illustrates the results.
100 mg/kg of ketamine and 10 mg/kg of xylazine were intraperitoneally injected into 6- to 8-week-old C57B/6J mice (Japan SLC, Inc.), and the mice were placed under anesthesia. Then, eyedrops (SANDOL P) containing tropicamide (5 mg/ml) and phenylephrine (5 mg/ml) were used to dilate the pupil. Any four points of the fundus were irradiated with a 532 nm argon laser (100 mW, 0.1 s, 75 μm) to form new blood vessels. The compound (20 pmol) was intraocularly injected immediately after the laser irradiation, and an ofloxacin (Tarivid) ophthalmic ointment was applied to the corneal surface to prevent infection and drying.
100 mg/kg of ketamine and 10 mg/kg of xylazine were intraperitoneally injected into the mice after 7 days had passed from the laser irradiation, and the mice were placed under anesthesia. Then, the mice underwent thoracotomy and were perfused with FITC-dextran (50 mg/ml; Life Technologies Japan Ltd.) through the left ventricle. After the perfusion, the eyes were enucleated and fixed in 4% paraformaldehyde. After the fixation, the corneas, crystalline lenses, and retinas were removed, and the flat mount of the choroid was obtained. CNV was imaged with a fluorescence microscope (BZ-9000; Keyence Corporation) so that the area of the CNV was measured.
An experiment was performed in the same manner as Experiment 2 by administering the compound 2 at different concentrations (0.2 µM, 2 µM, 20 µM), and the CNV inhibition was evaluated. FIG. 3 illustrates the results.

[2] = tested on: vascular endothelial growth factor (VEGF); experiment: VEGF protein in culture medium of ARPE-19 cells by ELISA (Experiment 1); assay type: cell-based, human; conditions: compound 10 μM, TGF-β 1 nM, 72 hours, FIG. 1
Experimental: [Experiment 1: Evaluation of Effect of Inhibiting VEGF Expression by Compounds 1 to 3]
The synthesized compounds 1 to 3 and the following reference compound were administered to human retinal pigment epithelial cells (ARPE-19 cell line). After 3 days of cultivation, each culture medium was subjected to ELISA to determine a vascular endothelial growth factor (VEGF). The details of the experiment are as follows. FIG. 1 illustrates the results.
A retinal pigment epithelial cell line, i.e., ARPE-19 was used. The ARPE-19 was cultured in Ham's F-12/DMEM medium containing 10% fetal bovine serum and 1% penicillin-streptomycin solution. The cells were seeded on a 24 well plate at 1.0×10^4 cell/well. On the next day, the culture medium was replaced with 1% fetal bovine serum. Further, the culture medium was removed 24 hours later and replaced with a culture medium (containing 1% fetal bovine serum) to which the compound (10 μM) and TGF-β (1 nM) were added. The culture medium was replaced every 24 hours in the same manner. Then, the culture medium was collected after 72 hours had passed from the administration of the compound. An ELISA kit (manufactured by R&D Systems, Inc.) was used to measure the amount of VEGF protein in the culture medium. The absorbance was measured by an ARVO X5 multiplate reader.

Row | SMILES | CNV formation (area of CNV) [1] | amount of VEGF protein in the culture medium [2]
1 | O=C1NN(c2ccc(I)cc2)C(=O)/C1=C\c1ccc(O)c([N+](=O)O)c1 [compound 3] | reduced | reduced
2 | COc1cc(/C=C2\C(=N)N3N=C(C(F)(F)F)SC3=NC2=O)ccc1O [compound 2, 6-(4-hydroxy-3-methoxybenzylidene)-5-imino-2-(trifluoromethyl)-5,6-dihydro-7H-[1,3,4]thiadiazolo[3,2-a]pyrimidin-7-one] | reduced | reduced
3 | COc1cc(/C=C2/C(=O)NN(c3ccc(Cl)c(Cl)c3)C2=O)ccc1O [compound 1, 1-(3,4-dichlorophenyl)-4-(4-hydroxy-3-methoxybenzylidene)pyrazolidine-3,5-dione] | reduced | reduced
